Laboratory results published in paper PMC12768534.
Changes are numbered by the printed parent chain. No constants are given. Whether binding was seen depends on the method and setting. Some entries that bind do so weakly or less than the wild type.

Protein sequences, listed by entry. Tags and fused reporters are not part of them. Residues count along the entry.
UniProt Q9HBE5, residues 20-232: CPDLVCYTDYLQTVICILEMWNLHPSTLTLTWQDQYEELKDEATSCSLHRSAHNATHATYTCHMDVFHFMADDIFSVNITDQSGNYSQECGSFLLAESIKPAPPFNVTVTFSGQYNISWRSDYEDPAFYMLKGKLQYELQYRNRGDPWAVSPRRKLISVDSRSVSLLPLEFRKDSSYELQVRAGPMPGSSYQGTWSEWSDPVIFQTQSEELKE

What was measured:
Experiment in all cases: flow cytometry on cells; yeast surface display (Aga2p); hIL-21R with human Fc-tag at 100 nM, labelled by biotinylated ZZ domain of protein A and streptavidin-PE; expression by anti-c-myc-FITC; only the binder purified
21d26 = biological target: T1, 21d26
T1 sequence: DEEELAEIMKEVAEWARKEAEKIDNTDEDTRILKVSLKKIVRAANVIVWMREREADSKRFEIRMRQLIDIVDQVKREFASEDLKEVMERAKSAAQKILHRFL

21d28 = biological target: T2, 21d28
T2 sequence: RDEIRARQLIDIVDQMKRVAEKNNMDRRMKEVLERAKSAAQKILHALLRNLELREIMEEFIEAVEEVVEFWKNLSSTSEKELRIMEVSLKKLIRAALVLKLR

21d29 = biological target: T3, 21d29
T3 sequence: T2 sequence with V19Y

21d36 = biological target: T4, 21d36
T4 sequence: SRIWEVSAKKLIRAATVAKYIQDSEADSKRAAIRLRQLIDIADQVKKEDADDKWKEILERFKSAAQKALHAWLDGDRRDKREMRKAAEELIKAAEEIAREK

Measured: binding

human IL-21R with human Fc-tag (from UniProt Q9HBE5 20-232) (Fc fusion)
binds: all assays above
